Laboratory results as given in PubChem BioAssay (EPA / NIEHS).
Inconclusive means that the source gave no clear call. Such entries were picked first, then a sample of the others. A potency beside an inconclusive call is a rough fit, not a confirmed value. Calls of active or inactive are those of the source. How the source made its calls: active means hit-call score of the fitted dose curve at least 0.9, where 1 is the maximum; inconclusive means response in the unintended direction; inactive means score below 0.9.

These compounds were tested on organic anion transporter (SLCO1B1), SLCO1B1 (gene 10599) (assay: CLD_SLCO1B1_24hr: CellzDirect (CLD) Gene Expression Assay for organic anion transporter (SLCO1B1) at 24 hours (AID 2283690)).
Procedure: CLD_24hr is a cell-based, multiplexed-readout assay that uses hepatocyte, a human liver primary cell, with measurements taken at 24 hours after chemical dosing in a 96-well plate.CLD_SLCO1B1_24hr is one of 16 assay component(s) measured or calculated from the CLD_24hr assay. It is designed to make measurements of mRNA induction, a form of inducible reporter, as detected with chemiluminescence signals by Quantitative Nuclease Protection Assay (qNPA) technology.Data from the assay component CLD_SLCO1B1_24hr was analyzed at the endpoint, CLD_SLCO1B1_24hr, in the positive analysis fitting direction relative to DMSO as the negative control and baseline of activity. Using a type of inducible reporter, gain-of-signal activity can be used to understand changes in the reporter gene as they relate to the gene SLCO1B1. Furthermore, this assay endpoint can be referred to as a primary readout. To generalize the intended target to other relatable targets, this assay endpoint is annotated to the transporter intended target family, where subfamily is organic anion transporter.
Human hepatocyte cultures were treated daily for two consecutive days with fresh dosing solutions containing appropriate concentrations of the 320 ToxCast chemicals (chemical identities were blinded to CellzDirect and other ToxCast collaborators), vehicle control (0.2% DMSO), and positive control inducers as summarized in Table 1. Due to the large number of treatment groups and chemicals examined, the ToxCast chemicals were divided into two groups (spanning two independent cultures of hepatocytes from separate donor preparations (Hu778: ToxCast plates 1 and 2; Hu776: ToxCast plates 3 and 4). Each preparation of human hepatocyte cultures was treated with respective vehicle control, medium only control, set of six positive controls/reference chemicals for the five hepatic receptor pathways, and a subset of eight of the ToxCast chemicals (indoxacarb, pyrithiobac-sodium, norflurazon, cyhalofop-butyl, methomyl, thiram, acetochlor, and propiconazole). These replicate data, coupled with internal replicates designed within the blinded ToxCast chemical library, provided additional data to evaluate interindividual differences between hepatocyte preparations and their potential impact on chemical profiles.Cell morphology and integrity were evaluated using phase-contrast microscopy as an indicator of hepatocyte cell health (Tyson & Green, 1987). Cultures for each treatment group (i.e., media, vehicle [0.2% DMSO], positive control inducers [multiple concentrations], and the ToxCast chemicals [multiple concentrations]) were observed and cell morphology was assessed relative to vehicle control cultures at each harvest time point (0, 6, 24, or 48 h). […] Images were evaluated at the conclusion of the study to assess changes in cell integrity and account for the effects of chemical exposure on uncharacteristic changes in concentration-dependent gene expression profiles. The results from these determinations of apparent cytotoxicity were annotated (yes/no) alongside the corresponding qNPA data for reference.At the conclusion of each treatment period, hepatocyte cultures (96-well) were washed with 1 volume of HBSS, lysed by addition of 25 ul ArrayPlate lysis buffer (HTG, Tucson, AZ), and 70 ul/well of Denaturation Oil, denatured by incubation at 95C for 10 min, and frozen at approximately -70C until analysis by nuclease protection assay (qNPA) (Roberts et al., 2007). For qNPA analysis, cell lysates were thawed at 50C for approximately 30 min, qNPA probes were added, and samples were incubated at 95C for 10 min to begin the detection process by denaturing the target RNA, dissociating the duplexes and secondary structure hybridization. At the conclusion of the hybridization period, S1 nuclease reagent was added to each sample to digest all nonprotected nucleotides at 50C for 60-90 min. […]
In the case of CN(C)[C@@H]1C(=O)C(C(N)=O)=C(O)[C@@]2(O)C(=O)C3=C(O)c4c(O)cccc4[C@@](C)(O)[C@H]3[C@H](O)[C@@H]12, the outcome is reported as “inactive”.
CCCCOC(=O)c1ccccc1C(=O)O was tested, and the AC50 was inconclusive: 20 µM.
CC(C)N(C(=O)SCC(Cl)=C(Cl)Cl)C(C)C was tested, and the AC50 was inconclusive: 20 µM.
In the case of N#CN=C1SCCN1Cc1ccc(Cl)nc1, the AC50 is reported as inconclusive: 20 µM.
CC(C)=CC1C(C(=O)OCN2C(=O)C3=C(CCCC3)C2=O)C1(C)C (stereo not given) was tested, and the outcome was “inactive”.
With COc1cc(Cl)c(OC)cc1Cl the AC50 was inconclusive: 20 µM.
With CCOC(=O)CC(SP(=S)(OC)OC)C(=O)OCC (stereo not given) the outcome was “inactive”.
CS/C(C)=N/OC(=O)N(C)SN(C)C(=O)O/N=C(\C)SC was tested, and the AC50 was inconclusive: 20 µM.
In the case of Cc1ccccc1CO[C@@H]1C[C@@]2(C(C)C)CC[C@]1(C)O2, the outcome is reported as “inactive”.
CCCCNC(=O)n1c(NC(=O)OC)nc2ccccc21 was tested, and the AC50 was inconclusive: 8.65 µM.
CCCCOCN(C(=O)CCl)c1c(CC)cccc1CC was tested, and the AC50 was inconclusive: 20 µM.
Nc1cnn(-c2ccccc2)c(=O)c1Cl was tested, and the AC50 was inconclusive: 34.1 µM.
For Cc1ccc(N=CN(C)C=Nc2ccc(C)cc2C)c(C)c1, the outcome was “inactive”.
With CC(C)[C@H](C(=O)O[C@H](C#N)c1cccc(Oc2ccccc2)c1)c1ccc(Cl)cc1 the outcome was “inactive”.
With OC(c1ccc(Cl)cc1)(c1cncnc1)c1ccccc1Cl (stereo not given) the AC50 was inconclusive: 0.384 µM.
In the case of CC(C)C1(C)N=C(c2ncccc2C(=O)O)NC1=O (stereo not given), the AC50 is reported as inconclusive: 20 µM.
Cc1nn(-c2cc(NS(C)(=O)=O)c(Cl)cc2Cl)c(=O)n1C(F)F was tested, and the outcome was “inactive”.
For CCOP(=O)(OCC)Oc1cc(C)nc(C(C)C)n1, the outcome was “inactive”.
For CCOP(=S)(OCC)OC(Cl)C(Cl)(Cl)Cl (stereo not given), the outcome was “inactive”.
For CCOP(=S)(OCC)Oc1cc(C)nc(C(C)C)n1, the AC50 was inconclusive: 20 µM.
O=C(O)COc1ccc(Cl)cc1Cl was tested, and the AC50 was inconclusive: 20 µM.
CCNC(=O)NC(=O)C(C#N)=NOC was tested, and the outcome was “inactive”.
COP(=O)(OC)O/C(C)=C/C(=O)N(C)C was tested, and the outcome was “inactive”.
In the case of S=C1NCCN1, the outcome is reported as “inactive”.
For CNC(=O)ON=C(C)SC, the outcome was “inactive”.
For C=CCC1=C(C)[C@@H](OC(=O)[C@@H]2[C@@H](C=C(C)C)C2(C)C)CC1=O, the AC50 was inconclusive: 0.189 µM.
COC(=O)N(OC)c1ccccc1COc1ccn(-c2ccc(Cl)cc2)n1 was tested, and the outcome was “inactive”.
For CCOP(=S)(OCC)Oc1nc(Cl)n(C(C)C)n1, the AC50 was inconclusive: 0.245 µM.
In the case of Fc1ccc(Oc2ccnc3cc(Cl)cc(Cl)c23)cc1, the AC50 is reported as inconclusive: 20 µM.
For COP(=O)(OC)C(O)C(Cl)(Cl)Cl (stereo not given), the outcome was “inactive”.
C#CC(C)(C)NC(=O)c1cc(Cl)cc(Cl)c1 was tested, and the AC50 was inconclusive: 0.00746 µM.
With FC(F)C(F)(F)OCC(Cn1cncn1)c1ccc(Cl)cc1Cl (stereo not given) the AC50 was inconclusive: 20 µM.
With COP(=O)(OC)OC=C(Cl)Cl the outcome was “inactive”.
In the case of COC(=O)N(C(=O)N1CO[C@@]2(C(=O)OC)Cc3cc(Cl)ccc3C2=N1)c1ccc(OC(F)(F)F)cc1, the AC50 is reported as inconclusive: 6.9 µM.
CCc1cccc(C)c1N(C(=O)CCl)C(C)COC (stereo not given) was tested, and the AC50 was inconclusive: 20 µM.
With CNC(=O)/C=C(\C)OP(=O)(OC)OC the AC50 was inconclusive: 1.47 µM.
For CCOP(=S)(OCC)Oc1ccc([N+](=O)[O-])cc1, the AC50 was inconclusive: 4.86 µM.
For O=P(O)(O)CCCl, the AC50 was inconclusive: 0.00398 µM.
CNC(=O)CSP(=S)(OC)OC was tested, and the AC50 was inconclusive: 0.116 µM.
In the case of C[Si](Cn1cncn1)(c1ccc(F)cc1)c1ccc(F)cc1, the AC50 is reported as inconclusive: 0.0442 µM.
